Data from patent US20200129532A1.
These are yes or no findings as the source states them, for the method shown. In cells and extracts the contact can be indirect. Binding can be weak; no strength is given. Where a sequence is shown, tags or fusion partners need not be part of it.

Molecular target: T1, HA-tagged VDR (vitamin D receptor), wild type (human) (UniProt P11473)
T1 sequence (acetylated lysine at 91 (K91Ac), looked up): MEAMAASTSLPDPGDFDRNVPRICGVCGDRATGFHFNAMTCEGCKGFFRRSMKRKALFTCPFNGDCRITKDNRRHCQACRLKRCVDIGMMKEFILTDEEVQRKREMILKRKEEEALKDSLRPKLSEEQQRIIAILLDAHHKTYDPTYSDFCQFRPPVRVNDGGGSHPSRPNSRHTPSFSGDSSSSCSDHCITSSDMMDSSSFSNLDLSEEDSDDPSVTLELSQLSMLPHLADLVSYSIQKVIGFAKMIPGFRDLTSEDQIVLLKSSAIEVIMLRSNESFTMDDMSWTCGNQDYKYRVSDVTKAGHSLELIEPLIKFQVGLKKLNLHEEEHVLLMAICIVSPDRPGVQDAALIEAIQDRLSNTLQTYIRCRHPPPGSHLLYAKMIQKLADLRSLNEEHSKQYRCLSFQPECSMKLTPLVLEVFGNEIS
Assay: co-immunoprecipitation of endogenous PCAF with HA-VDR from INS1 cells, Western blot (FIG. 4K)

In the case of endogenous PCAF (INS1 cells) (enzyme), the binding was “binds”.
